Results taken from PubChem BioAssay (NCATS).
This list was built around the results that the source calls inconclusive (neither active nor inactive); the mix of calls is not that of the screen. A potency beside an inconclusive call is a rough fit, not a confirmed value. Active and inactive are the calls of the source. Calls follow the shape of the dose curve; as a rule, active = well fitted cell-killing curve with a large enough effect; inconclusive = small, poorly fitted or top-dose-only effect, or effect the other way; inactive = no such curve, though single readings can be large or run the other way. Bridge positions count the residues as written; N and C are the ends. Square brackets hold non-standard residues; d marks the D form. Peptide text beside a SMILES is read from it. * marks the point of attachment. ξ: configuration not given here. Octanoyl(6-Me) = CCC(C)CCCCC(=O)*; ξThr(3R) = C[C@@H](O)C(N)C(=O)O; dDab = NCC[C@@H](N)C(=O)O; Dab = NCC[C@H](N)C(=O)O

Assay: Quantitative High-Throughput drug screen in 47 multiple myeloma cell lines against the NCATS MIPE library collection: LP1_DSMZ cell viability assay (AID 1918982); also: nearly all actives have a fitted effect of over 35% in size
Conditions: LP1 myeloma viability, CellTiter-Glo ATP luminescence, 48 h; series mostly up to 45.8 µM
Source text: PI: Beverly A. Mock Ph.D.
Laboratory of Cancer Biology and Genetics,
Center for Cancer Research, National Cancer Institute,
National Institute of Health, Bethesda, Maryland
Drug resistance and disease progression are common in multiple myeloma (MM) patients, underscoring the need for new therapeutic combinations. […] We hypothesized that effective combinations would reduce MYC expression and enhance p16 activity. […] These preclinical data identify potentially useful drug combinations for evaluation in drug-resistant MM and reveal potential mechanisms of combined drug sensitivity.
Described herein is the primary MIPE qHTS used to cherrypick compounds. Validated compounds were then further tested for potential synergistic activiy.
[1] Peat TJ, Gaikwad SM, Dubois W, Gyabaah-Kessie N, Zhang S, Gorjifard S, Phyo Z, Andres M, Hughitt VK, Simpson RM, Miller MA, Girvin AT, Taylor A, Williams D, D'Antonio N, Zhang Y, Rajagopalan A, Flietner E, Wilson K, Zhang X, Shinn P, Klumpp-Thomas C, McKnight C, Itkin Z, Chen L, Kazandijian D, Zhang J, Michalowski AM, Simmons JK, Keats J, Thomas CJ, Mock BA. Drug combinations identified by high-throughput screening promote cell cycle transition and upregulate Smad pathways in myeloma. Cancer Lett. 2023 Aug 1;568:216284. doi: 10.1016/j.canlet.2023.216284. Epub 2023 Jun 24. PMID: 37356470; PMCID: PMC10408729.
SEQUENCE No. (e.g., 1, 2, 3, etc.); […] (e.g., Cells, Incubation, Reagent, etc.); VALUE and DESCRIPTION.
1; Cells; 5 uL; white, solid bottom 1536-well Greiner assay plate.
2; Compounds; 23 nL; Kalypsis pin tool (Wako USA) equipped with a 1536-well pin head to transfer to the assay plates.
3; Incubation; 48 hours; 37C incubation.
4; Reagent;5uL; CellTiter Glo (Promega).
5; Detector; 425V; Luminescence; Viewlux PerkinElmer.
NOTES (numbers refer to Sequence numbers above)
1. The cell-based screening methods employed in this study were like those previously published. Briefly, the corresponding myeloma cell lines were screened in 1,536-well plates with 500 cells, 5-uL per well for inhibition of cell viability (assessed by measuring ATP levels with CellTiterGlo).
2. NCATS MIPE 4.0 library of approved and investigational drugs were added using the Kalypsis pin tool. Wells treated with DMSO only for 100% viability and media only for 0% viability were used as controls.
3. The assay plates were covered and incubated for 48 hours in a 37C, 5% CO2 incubator with controlled humidity.
4. After 48 hours, CellTilter-GloTM luminescent substrate mix (Promega) reagent was added to the assay plate and plates we incubated for 5 min at room temperature.
5. Signal was measured as median relative luminescence units on a ViewLux (PerkinElmer) multiplate reader.
[1] Heske CM, Davis MI, Baumgart JT, Wilson K, Gormally MV, Chen L, Zhang X, Ceribelli M, Duveau DY, Guha R, Ferrer M, Arnaldez FI, Ji J, Tran HL, Zhang Y, Mendoza A, Helman LJ, Thomas CJ. Matrix Screen Identifies Synergistic Combination of PARP Inhibitors and Nicotinamide Phosphoribosyltransferase (NAMPT) Inhibitors in Ewing Sarcoma. Clin Cancer Res. 2017 Dec 1;23(23):7301-7311. doi: 10.1158/1078-0432.CCR-17-1121. Epub 2017 Sep 12. PMID: 28899971; PMCID: PMC6636827.
Potency is read from the fitted curve at half-maximal effect.

Structure (SMILES) | Potency
COC1=C(OC)C(=O)C(CCCCCCCCCCO)=C(C)C1=O | inconclusive: 14.8 µM [cytotoxic, partial curve]
CCCCCCCCCCCC(CC1OC(=O)C1CCCCCC)OC(=O)C(CC(C)C)NC=O (stereo not given) | inconclusive: 16.6 µM [cytotoxic, partial curve, poor fit]
CCC(C)CCCCC(=O)N[C@@H](CCN)C(=O)NC(C(=O)N[C@H](CCN)C(=O)N[C@@H]1CCNC(=O)C([C@@H](C)O)NC(=O)[C@@H](CCN)NC(=O)[C@@H](CCN)NC(=O)[C@@H](CC(C)C)NC(=O)[C@H](Cc2ccccc2)NC(=O)[C@H](CCN)NC1=O)[C@@H](C)O (stereo partly drawn) ({Octanoyl(6-Me)}-[Dab][ξThr(3R)][dDab][dDab][Dab]F[dL][dDab][dDab][ξThr(3R)]; lactam 4-C) | inactive
O=P(O)(O)C(O)(Cn1ccnc1)P(=O)(O)O | inactive
NC12CC3CC(CC(C3)C1)C2 | inconclusive: 14.8 µM [cytotoxic, partial curve, poor fit]
CCOC(=O)Nc1ccc(NCc2ccc(F)cc2)nc1N | inactive
Clc1ccc(-c2nc3sccn3c2C=NOCc2ccc(Cl)c(Cl)c2)cc1 | inactive
O=c1cc(O)c(Cl)c[nH]1 | inactive
CS(=O)(=O)c1ccc(C2=C(c3ccccc3)C(=O)OC2)cc1 | inactive
Cc1noc(-c2ccc(CSCCC(=O)O)cc2)c1NC(=O)OC(C)c1ccccc1Cl (stereo not given) | inactive
Cc1cc(-c2ccc(CC(=O)Nc3ccc(-c4cccnc4)cc3)cc2)ccn1 | inconclusive: 16.6 µM [cytotoxic, partial curve]
CN(C[C@@H]1COCCO1)S(=O)(=O)Nc1ccc2ccc3ncc(-c4cnn(C)c4)cc3c(=O)c2c1 | inconclusive: 4.69 µM [cytotoxic, partial curve, poor fit]
CC1(C)S[C@H]2[C@H](NC(=O)[C@@H](N)c3ccc(O)cc3)C(=O)N2[C@@H]1C(=O)O | inconclusive: 23.5 µM [cytotoxic, partial curve, poor fit]
CCOC(=O)N[C@@H]1CC[C@@H]2[C@@H](C1)C[C@H]1C(=O)O[C@H](C)[C@H]1[C@@H]2C=Cc1ccc(-c2cccc(F)c2)cn1 | inconclusive: 23.5 µM [cytotoxic, single point]
CC1CCC(C(=O)N(c2cc(C#CC(C)(C)C)sc2C(=O)O)C2CCC(O)CC2)CC1 (stereo not given) | inconclusive: 37.2 µM [cytotoxic, single point]
C[C@@H](CN1CC(=O)NC(=O)C1)N1CC(=O)NC(=O)C1 | inactive
CCOC(CN1C(=O)[C@](CC(=O)Nc2ccc(C)cc2)(NC(=O)Nc2ccc(C)cc2)c2ccccc21)OCC | inactive
NC[C@@H]1O[C@@H](O[C@H]2[C@@H](O)[C@H](O[C@@H]3[C@@H](O)[C@@H](N)C[C@H](N)[C@H]3O[C@H]3O[C@H](CN)[C@@H](O)[C@@H](O)[C@H]3N)O[C@H]2CO)[C@H](N)[C@@H](O)[C@@H]1O | inactive
CO[C@H]1C=CO[C@@]2(C)Oc3c(C)c(O)c4c(O)c(c(C=NN5CCN(C)CC5)c(O)c4c3C2=O)NC(=O)C(C)=CC=C[C@H](C)[C@H](O)[C@@H](C)[C@@H](O)[C@@H](C)[C@H](OC(C)=O)[C@H]1C | inconclusive: 0.0005 µM
CC(C)(C)c1[nH]cnc1C=c1[nH]c(=O)c(=Cc2ccccc2)[nH]c1=O | inconclusive: 54 µM [cytotoxic, partial curve]

Structure (SMILES) | Potency
CO[C@H]1C=CO[C@@]2(C)Oc3c(C)c(O)c4c(O)c(c5c(c4c3C2=O)NC2(CCN(CC(C)C)CC2)N=5)=NC(=O)C(C)=CC=C[C@H](C)[C@H](O)[C@@H](C)[C@@H](O)[C@@H](C)[C@H](OC(C)=O)[C@H]1C | inconclusive: 14.8 µM [cytotoxic, partial curve, poor fit]
CCNC(=O)c1cc2c(-c3cc(OCCN4CCCC4)c(Cl)cc3Cl)nc(N)nc2s1 | inconclusive: 1.48 µM [cytotoxic, full curve]
CN(C)c1ccc(C2Nc3ccc4ccccc4c3C3=C2C(=O)CC(C)(C)C3)cc1Br (stereo not given) | inconclusive: 16.6 µM [cytotoxic, partial curve, poor fit]
Nc1cc(C(Cl)=C(Cl)Cl)c(S(N)(=O)=O)cc1S(N)(=O)=O | inactive
CC(C)(C)c1nc(-c2cccc(NS(=O)(=O)c3c(F)cccc3F)c2F)c(-c2ccnc(N)n2)s1 | inconclusive: 16.6 µM [cytotoxic, partial curve, poor fit]
N#Cc1ccc(C(c2ccc(C#N)cc2)n2cncn2)cc1 | inconclusive: 16.6 µM [cytotoxic, partial curve]
COC(=O)N[C@H](C(=O)N1CCC[C@@H]1c1ncc(-c2ccc(-c3ccc(-c4cnc([C@@H]5CCCN5C(=O)[C@@H](NC(=O)OC)C(C)C)[nH]4)cc3)cc2)[nH]1)C(C)C | active: 18.7 µM
CNC(=O)[C@H](Cc1ccccc1)NC(=O)[C@H](CC(C)C)[C@H](CSc1cccs1)C(=O)NO | inconclusive: 18.7 µM [cytotoxic, partial curve]
CN1[C@H]2CC[C@H]1CC(OC(=O)c1c[nH]c3ccccc13)C2 (stereo not given in full) | inactive
NS(=O)(=O)c1cc2c(cc1Cl)NCNS2(=O)=O | inactive
NC(=O)c1nnn(Cc2cc(Cl)c(C(=O)c3ccc(Cl)cc3)c(Cl)c2)c1N | inconclusive: 20.9 µM [cytotoxic, partial curve]
COCCOC(=O)C1=C(C)NC2=C(C(=O)CC(c3ccccc3OC)C2)C1c1cccc(O)c1 (stereo not given) | inconclusive: 13.2 µM [cytotoxic, partial curve]
CC(C)C[C@H](CC(=O)O)C(=O)N[C@@H](Cc1c[nH]c2ccccc12)C(=O)N[C@@H](C)c1ccccc1 | inactive
CC(C)NCC(O)c1ccc(NS(C)(=O)=O)cc1 (stereo not given) | inactive
CCOC(=O)O[C@]1(C(=O)OCCl)CC[C@@H]2[C@H]3CCC4=CC(=O)C=C[C@]4(C)[C@@H]3[C@@H](O)C[C@@]21C | inconclusive: 0.296 µM [cytotoxic, partial curve, poor fit]
O=C1Nc2ccc(Cl)cc2C(C#CC2CC2)(C(F)(F)F)O1 (stereo not given) | inconclusive: 0.0019 µM [rising, full curve, poor fit]
CC[C@H]1OC(=O)[C@H](C)[C@@H](O[C@H]2C[C@@](C)(OC)[C@@H](O)[C@H](C)O2)[C@H](C)[C@@H](O[C@@H]2O[C@H](C)C[C@H](N(C)C)[C@H]2O)[C@](C)(O)C[C@H](C)C(=NOCOCCOC)[C@H](C)[C@@H](O)[C@]1(C)O | inconclusive: 26.4 µM [cytotoxic, single point]
Nc1ncnc2c1nc(Cl)n2[C@@H]1O[C@H](CO)[C@@H](O)[C@@H]1O | active: 20.9 µM
Cc1cn([C@H]2C=C[C@@H](CO)O2)c(=O)[nH]c1=O | inactive
Cn1c(=O)c(Oc2ccc(F)cc2F)cc2cnc(NC3CCOCC3)nc21 | inconclusive: 16.6 µM [cytotoxic, partial curve, poor fit]

An excerpt from above in order of length of the SMILES, high to low.
Structure (SMILES) | Potency
NC[C@@H]1O[C@@H](O[C@H]2[C@@H](O)[C@H](O[C@@H]3[C@@H](O)[C@@H](N)C[C@H](N)[C@H]3O[C@H]3O[C@H](CN)[C@@H](O)[C@@H](O)[C@H]3N)O[C@H]2CO)[C@H](N)[C@@H](O)[C@@H]1O | inactive
Cc1noc(-c2ccc(CSCCC(=O)O)cc2)c1NC(=O)OC(C)c1ccccc1Cl (stereo not given) | inactive
Clc1ccc(-c2nc3sccn3c2C=NOCc2ccc(Cl)c(Cl)c2)cc1 | inactive
